# Results taken from patent publication US20050202515A1, “Functional method for generating or screening for ligands which modulate steroid hormone receptors” (Wyeth, priority 2004, published 2005).
# By UniProt entry, the sequences of proteins in these tests, tags left out. Where a name states a change or a piece, a line headed by the entry shows the natural chain unless it says otherwise.
# UniProt Q8IZL8: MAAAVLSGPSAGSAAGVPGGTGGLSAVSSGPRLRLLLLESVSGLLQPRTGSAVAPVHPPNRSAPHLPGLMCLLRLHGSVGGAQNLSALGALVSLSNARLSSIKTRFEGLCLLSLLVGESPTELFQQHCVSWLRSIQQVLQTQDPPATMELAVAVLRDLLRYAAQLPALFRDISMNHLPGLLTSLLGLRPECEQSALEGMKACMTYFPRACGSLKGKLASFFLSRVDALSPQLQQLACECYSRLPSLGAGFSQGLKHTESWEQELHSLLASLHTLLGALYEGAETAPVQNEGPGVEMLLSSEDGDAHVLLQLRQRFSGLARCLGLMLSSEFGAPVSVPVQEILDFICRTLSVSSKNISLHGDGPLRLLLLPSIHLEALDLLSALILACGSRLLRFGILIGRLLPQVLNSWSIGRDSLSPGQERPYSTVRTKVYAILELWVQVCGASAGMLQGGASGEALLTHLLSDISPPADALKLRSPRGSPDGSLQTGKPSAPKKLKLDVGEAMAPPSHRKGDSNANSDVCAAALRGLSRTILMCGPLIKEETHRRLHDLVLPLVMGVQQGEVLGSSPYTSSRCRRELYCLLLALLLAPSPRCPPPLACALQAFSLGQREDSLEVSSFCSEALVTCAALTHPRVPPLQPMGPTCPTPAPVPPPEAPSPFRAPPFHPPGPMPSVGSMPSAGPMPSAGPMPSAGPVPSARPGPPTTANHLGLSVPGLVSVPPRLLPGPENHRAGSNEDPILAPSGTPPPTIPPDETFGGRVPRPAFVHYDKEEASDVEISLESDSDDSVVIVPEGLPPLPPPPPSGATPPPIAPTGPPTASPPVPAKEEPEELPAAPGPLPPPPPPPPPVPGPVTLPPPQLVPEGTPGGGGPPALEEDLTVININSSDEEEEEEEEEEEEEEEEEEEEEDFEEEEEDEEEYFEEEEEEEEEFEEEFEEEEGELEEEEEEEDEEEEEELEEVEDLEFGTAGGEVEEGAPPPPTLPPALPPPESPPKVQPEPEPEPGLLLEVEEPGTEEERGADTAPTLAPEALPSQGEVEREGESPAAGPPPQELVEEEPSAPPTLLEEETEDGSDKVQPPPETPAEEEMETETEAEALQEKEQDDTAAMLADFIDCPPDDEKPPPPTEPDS
# Results are given in words; binding and its absence hold for the method and conditions named. For some of these results: Binding seen in cells or lysates may run through a third protein. Some binding calls cover weakened binding; strength is not graded here. Tags and fused reporters may be left off the sequences shown.
# T1: GST fusion to the ligand binding domain of VDR, amino acids 110-427 (GST-VDR-LBD) (human) (UniProt P11473)
# T1 sequence: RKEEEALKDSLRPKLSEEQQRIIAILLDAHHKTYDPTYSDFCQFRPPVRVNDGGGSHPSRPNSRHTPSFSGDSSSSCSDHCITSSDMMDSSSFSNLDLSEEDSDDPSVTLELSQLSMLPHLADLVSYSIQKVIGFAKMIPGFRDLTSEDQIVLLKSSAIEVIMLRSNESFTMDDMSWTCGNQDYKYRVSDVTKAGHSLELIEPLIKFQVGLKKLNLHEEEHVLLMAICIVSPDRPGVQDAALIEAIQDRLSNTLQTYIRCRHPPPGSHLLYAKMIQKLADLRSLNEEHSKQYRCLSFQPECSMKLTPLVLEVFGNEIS
# T2: Biotinylated peptide corresponding to MNAR LXXLL motif #5
# T2 sequence (peptide, biotinylated (position not stated)): LPGLLTSLL
# Legend:
# [1] = molecular target: T1, GST fusion to the ligand binding domain of VDR, amino acids 110-427 (GST-VDR-LBD) (human); assay: GST pull-down: 35S-labelled full length MNAR with GST-VDR-LBD, with or without 100 nM 1,25(OH)2 Vit D3 (legend of FIG. 1)
# [2] = molecular target: T1, GST fusion to the ligand binding domain of VDR, amino acids 110-427 (GST-VDR-LBD) (human); assay: GST pull-down: 35S-labelled full length MNAR with GST-VDR-LBD on glutathione-Sepharose, with or without 100 nM 1,25(OH)2 Vit D3, SDS-PAGE and autoradiography
# [3] = molecular target: T2, Biotinylated peptide corresponding to MNAR LXXLL motif #5; assay: ELISA-type assay: GST-VDR-LBD with vehicle or 100 nM 1,25(OH)2 Vit D3 on immobilised MNAR LXXLL peptides, anti-GST-HRP (legend of FIG. 2)
# [4] = molecular target: T2, Biotinylated peptide corresponding to MNAR LXXLL motif #5; assay: ELISA-type assay: GST-VDR-LBD preincubated with vehicle or 1,25(OH)2D3 on biotinylated peptide immobilised on a NeutrAvidin plate, anti-GST-HRP chemiluminescence
binding [1],binding [2],binding [3],binding [4],Molecule
binds,binds,–,–,Modulator of nongenomic activity of estrogen receptor (MNAR) (from UniProt Q8IZL8 1-1130)
–,–,binds,binds,"GST fusion to the ligand binding domain of VDR, amino acids 110-427 (GST-VDR-LBD) (receptor, not shown: a dimerising Fc or GST) RKEEEALKDSLRPKLSEEQQRIIAILLDAHHKTYDPTYSDFCQFRPPVRVNDGGGSHPSRPNSRHTPSFSGDSSSSCSDHCITSSDMMDSSSFSNLDLSEEDSDDPSVTLELSQLSMLPHLADLVSYSIQKVIGFAKMIPGFRDLTSEDQIVLLKSSAIEVIMLRSNESFTMDDMSWTCGNQDYKYRVSDVTKAGHSLELIEPLIKFQVGLKKLNLHEEEHVLLMAICIVSPDRPGVQDAALIEAIQDRLSNTLQTYIRCRHPPPGSHLLYAKMIQKLADLRSLNEEHSKQYRCLSFQPECSMKLTPLVLEVFGNEIS"
